Laboratory results published in PubChem BioAssay AID540276 (National Center for Advancing Translational Sciences (NCATS), 2011).
“And” between values parts separate entries of the source, which are not always exact repeats. Equal values may be shown once. Out of some 300,000 compounds screened, about 5,400 (1.8%) were called active. This list was built around the results that the source calls inconclusive (neither active nor inactive); the mix of calls is not that of the screen. The call rests on the fitted dose curve; tested in HEK293 cells. A potency beside an inconclusive call is a rough fit, not a confirmed value.

test: qHTS for inhibitors of binding or entry into cells for Marburg Virus; conditions: Marburg virus pseudotyped entry inhibition, cell reporter; series mostly up to 37.8 µM
Potency means the concentration at half of the fitted maximal effect.

Compound | Potency
Cc1ccc(CN(C(=O)c2csnn2)C(C(=O)NC2CCCC2)c2ccc(C)o2)cc1 (stereo unspecified) | inactive
CC(C)N(C)C1=CC(=O)C(N(C)C(C)C)=CC1=O | inconclusive: 3.98 µM [activator, partial curve, poor fit]
CCCc1nnc(NC(=O)Cc2coc3ccc(C(C)C)cc23)s1 | inconclusive: 6.31 µM [inhibitor, single point]
O=C(CSc1oc(-c2ccccc2)nc1S(=O)(=O)c1ccc(Cl)cc1)NC1CCCCC1 | inconclusive: 5.01 µM [inhibitor, single point]
Cc1ccc(NC(=O)/C=C/c2cccc([N+](=O)[O-])c2)nc1 | inconclusive: 35.5 µM [inhibitor, single point]
CCOC(=O)c1cnc2c(OC)cccc2c1N1CCN(c2ccc(OC)cc2)CC1 | inactive
Cc1ccc(C2=Nc3cccnc3C(c3ccccc3)=NN2)cc1 | inconclusive: 1 µM [activator, partial curve]
Cc1ccc(-c2noc(CCC(=O)NC3CCCC3)n2)cc1 | inconclusive: 8.91 µM [inhibitor, partial curve, poor fit]
Cc1cccc(C)c1OC(=O)CSc1nnc(CNC(=O)c2ccccc2)o1 | inactive
Cc1cc(C)nc(S/C=C/C(=O)c2ccccc2F)n1 | inconclusive: 35.5 µM [inhibitor, single point]
CC(C)Oc1cccc(C(=O)NC(=S)N2CCN(c3ccc(C(F)(F)F)cc3[N+](=O)[O-])CC2)c1 | inconclusive: 35.5 µM [inhibitor, single point]
CC(=O)Nc1ccc(N2C(C(C)=O)=NN(c3ccc(Cl)cc3)C2c2sccc2C)cc1 (stereo unspecified) | active: 20.6 µM
CCN1CCCC1CNC(=O)c1ccc(N2CCOCC2)c(NS(=O)(=O)c2ccc(OC)cc2)c1 (stereo unspecified) | inconclusive: 9.2 µM [inhibitor, partial curve, poor fit]
Cc1nc2ncnn2c(N2CCN(S(=O)(=O)c3ccc(Br)cc3)CC2)c1C | inactive
Cc1ccc(NC(=O)NC(=O)CN2CCN(c3ccc(O)cc3)CC2)c(C)c1 | inactive
CCOC(=O)C1=C(c2ccccc2)OC(N)=C(C#N)C1C1CCCCC1 (stereo unspecified) | inconclusive: 35.5 µM [inhibitor, single point]
Clc1ccc(-c2ccnc3nc(N4CCOCC4)nn23)c(Cl)c1 | inactive
Cc1cc(N(CCCl)CCCl)ccc1C=Cc1ccncn1 | active: 3.98 µM
COc1ccc(/C=N/Nc2cc(N3CCCC3)nc(N3CCCC3)n2)cc1 | inconclusive: 1 µM [inhibitor, full curve, poor fit]
Cc1cccc(C)c1NC(=O)COC(=O)C1C2CC3OC(=O)C1C3C2 (stereo unspecified) | inactive
CCN(CC)CCCn1c2c(c(SCC(=O)Nc3nc4ccccc4s3)nc1=O)CCC2 | inconclusive: 35.5 µM [inhibitor, single point]
Cc1ccc(NC(=O)CN(c2ccc(Cl)cc2)S(=O)(=O)c2cc([N+](=O)[O-])ccc2Cl)cc1 | inconclusive: 10 µM [inhibitor, partial curve, poor fit]

Compound | Potency
CC(=O)Nc1cc(=O)c2cccnc2[nH]1 | inactive
Cc1ccnc2nc(C(=O)OCC(=O)N3CC(C)CC(C)C3)nn12 (stereo unspecified) | inactive
O=C1NC(=S)N/C1=C/c1cc([N+](=O)[O-])ccc1N1CCOCC1 | inconclusive: 2.51 µM [inhibitor, partial curve, poor fit]
CCOc1ccc(C(=O)c2cn(CC(=O)Nc3ccc4c(c3)OCCO4)c3ccc(F)cc3c2=O)cc1 | inconclusive: 11.2 µM [inhibitor, partial curve, poor fit]
C=CCn1c(C)cc(C(=O)CSc2nnc3n(CCC)c(=O)c4ccccc4n23)c1C | inconclusive: 4.47 µM [inhibitor, single point]
Cc1cccc(N2CCN(C(=O)c3cn4ccccc4n3)CC2C)c1 (stereo unspecified) | inconclusive: 35.5 µM [inhibitor, single point]
S=C(NCCc1ccccc1)NC1CCCCCC1 | inactive
CN(C(=O)CSc1nnc(-c2ccc(F)cc2)c2ccccc12)C1CCS(=O)(=O)C1 (stereo unspecified) | active: 5.01 µM
CSc1ccc(/C=N/NC(=O)c2sccc2C)cc1 | active: 10 µM
COc1ccc(NC(=O)c2cc3n(n2)C(C(F)(F)F)CC(c2ccc4c(c2)OCO4)N3)cc1OC (stereo unspecified) | inconclusive: 20.6 µM [inhibitor, partial curve, poor fit]
COc1ccc(-c2nnc3n(CCc4ccccc4)c(=O)c4ccccc4n23)c(OC)c1 | active: 10 µM
Cc1cccc(C)c1NC(=O)CSc1nnc(-c2ccoc2C)n1C | inactive
CCOC(=O)C1=C(C)NC(=O)NC1c1cc2c(cc1Br)OCO2 (stereo unspecified) | inconclusive: 1.26 µM [inhibitor, single point]
O=C(Nc1ccc(-c2nc3ccccc3o2)c(O)c1)c1cc(-n2cnnc2)ccc1Cl | inconclusive: 25.9 µM [inhibitor, single point]
CCCCN(C)CCNC(=O)c1cc2c(=O)[nH]c3ccccc3c2n1C | inconclusive: 22.4 µM [inhibitor, partial curve, poor fit]
O[C@H]1C[C@H](c2ccccc2)N(Cc2cccs2)C[C@H]1n1cc(C2CC2)nn1 | inconclusive: 2.5 µM [inhibitor, full curve, poor fit]
COc1cccc(C(=O)NC(=NCCc2c[nH]c3ccc(OC)cc23)Nc2nc(C)cc(C)n2)c1 | inconclusive: 10 µM [inhibitor, partial curve]
S=C(NCC1CCCO1)N1CCN(c2nc(-c3ccc(Cl)cc3)cs2)CC1 (stereo unspecified) | inconclusive: 0.794 µM [inhibitor, full curve, poor fit]
Cc1ccc(CNc2nc3c([nH]2)c(=O)n(C)c(=O)n3C)cc1 | inconclusive: 6.31 µM [activator, single point]
CN1CCc2nc3ccccc3c(C(=O)OCC(=O)N(CCC#N)c3ccccc3)c2C1 | inconclusive: 35.5 µM [inhibitor, partial curve, poor fit]
O=C(OCc1ccc(Cl)cc1)c1ccccc1C(=O)c1ccccc1 | inconclusive: 6.51 µM [inhibitor, single point]
COc1ccc(Cn2c(SCc3cc(C)ccc3C)nc3cc(OC)c(OC)cc3c2=N)cc1 | active: 4.61 µM

Compound | Potency
O=C(CCNC(=O)N1CC(=O)Nc2ccccc21)Nc1cccc(Cl)c1 | inconclusive: 5.62 µM [activator, single point]
Cc1ccc(-c2nnc(SCC(=O)N/N=C/c3c(C)nn(-c4ccccc4)c3C)n2-c2ccccc2)cc1 | inconclusive: 2.24 µM [inhibitor, partial curve, poor fit]
O=c1oc2ccccc2cc1-c1csc(Nc2ccc(O)cc2)n1 | inconclusive: 35.5 µM [inhibitor, partial curve, poor fit]
CCOC(=O)c1cnn(-c2ccc(Cl)cc2)c1C1CCN(C(=O)OC(C)(C)C)CC1 | inconclusive: 8.2 µM [inhibitor, partial curve]
CCN1CC(CN(C)Cc2nc(-c3cccs3)no2)CC1=O (stereo unspecified) | inconclusive: 31.6 µM [activator, single point]
CCc1cccc(CC)c1NC(=O)C(Cc1ccccc1)NS(=O)(=O)c1cccc2nsnc12 (stereo unspecified) | inconclusive: 1.12 µM [inhibitor, full curve, poor fit]
CCn1c(O)c(C=Nc2ccccc2)sc1=O | inconclusive: 4.47 µM [activator, full curve]
CCc1ccc(NC(=O)CSc2nc3c(oc4ccccc43)c(=O)n2-c2cccc(C)c2)cc1 | inconclusive: 12.6 µM [inhibitor, partial curve, poor fit]
CC(=O)c1cccc(N2C(=O)C3C4CCC(C4=C(C)C)C3C2=O)c1 (stereo unspecified) | inconclusive: 0.164 µM [activator, full curve, poor fit]
O=C(N/N=C/c1cc(Br)ccc1O)C(=O)Nc1ccccc1OC(F)(F)C(F)F | inconclusive: 16.4 µM [inhibitor, single point]
CCN(CC)CCn1c2ccc(Cl)cc2c2nc(C)sc21 | inactive
COc1ccc2ncccc2c1Cc1c(OC)ccc2ncccc12 | inconclusive: 1.78 µM [inhibitor, full curve]
COc1ccc(CN(C)CC(=O)Nc2cccc3ccccc23)cc1F | inconclusive: 22.4 µM [inhibitor, single point]
O=C(C=Cc1cccc(Cl)c1)c1ccccc1 | inconclusive: 25.1 µM [inhibitor, single point]
Cc1cc2c3c(c1)C(C)CC(C)(C)N3C(=O)C2=C(C#N)C#N (stereo unspecified) | inactive
c1ccc(N2CCN(c3nc(NCc4ccco4)c4ccccc4n3)CC2)cc1 | inconclusive: 22.4 µM [inhibitor, single point]
COc1ccc2c(c1)c(CC(=O)Nc1ccc(C(C)=O)cc1)c(C)n2C(=O)c1ccc(Cl)cc1 | inactive and inconclusive: 112 nM [activator, partial curve, poor fit]
COc1ccc(CCN(Cc2ccc(C(C)C)cc2)S(=O)(=O)c2ccc(S(=O)(=O)N(C)C)cc2)cc1OC | inconclusive: 0.794 µM [activator, full curve, poor fit]
OC(c1ccccc1)c1nc2ccccc2s1 (stereo unspecified) | inactive
O=C(CSCCO)Nc1ccccc1 | inactive
COC(=O)NC(/C=C/c1ccccc1)C(C(C)=O)C(=O)OC (stereo unspecified) | inconclusive: 6.68 µM [inhibitor, single point]
Cc1ccc(NC(=O)COc2coc(CN3CCc4ccccc43)cc2=O)cc1Cl | inactive

Some of the entries so far, comma-delimited:
Compound,Potency
CC(=O)c1cccc(N2C(=O)C3C4CCC(C4=C(C)C)C3C2=O)c1 (stereo unspecified),"inconclusive: 0.164 µM [activator, full curve, poor fit]"
O=C(N/N=C/c1cc(Br)ccc1O)C(=O)Nc1ccccc1OC(F)(F)C(F)F,"inconclusive: 16.4 µM [inhibitor, single point]"
CCN(CC)CCn1c2ccc(Cl)cc2c2nc(C)sc21,inactive
